We go through 1 substance from publication PMC8167118.

The assay deals with T1, UBC13 (UBE2N) (mouse (endogenous in BMDCs)) (UniProt P61089).
T1 sequence: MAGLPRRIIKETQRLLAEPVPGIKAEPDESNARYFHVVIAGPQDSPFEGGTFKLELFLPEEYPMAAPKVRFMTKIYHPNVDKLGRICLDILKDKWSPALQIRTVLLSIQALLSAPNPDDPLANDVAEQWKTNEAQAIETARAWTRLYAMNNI
Put plainly: co-IP; endogenous proteins of BMDCs, unstimulated or stimulated with TgPFN or LPS in the presence of MG132; lysates precleared, incubated with specific antibodies at 4 °C overnight, Sepharose G beads 2 h, five washes with PBS; WB.

No constants are given. Whether binding was seen depends on the method and setting. Binding seen in cells or lysates may run through a third protein. Binding can be weak; no strength is given.

For “Pellino (mouse (endogenous in BMDCs)) (enzyme)”, the binding entry was “binds”.
